Results reported in the supplement of paper PMC8104966.
Where “and” joins values, the source holds several entries; their conditions need not be identical. Identical values can stand only once. Some of the results follow. Repeats in this data set agree poorly, so a single value says little.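 Fusion between ACE2-bearing and full-length-spike-bearing U2OS cells was measured by imaging as the percentage of nuclei with both cell types' fluorescent markers. An inhibitory hit is a non-toxic compound whose fusion z-score is below -3, more than three standard deviations beneath the plate's DMSO wells.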

Test system: U2OS ACE2 x SARS-CoV-2 spike co-culture
Assay: cell-cell fusion (fraction fused) z-score vs plate DMSO control; higher = more fusion
Settings: 30 µM; 5 h; toxicity class: non-toxic, passed QC

| Compound | cell-cell fusion (z-score) |
| --- | --- |
| O=c1c(-c2ccc(O)cc2)coc2cc(O)cc(O)c12 [Genistein] | inactive: 0.843 |
| O=c1c(-c2ccc(O)cc2)coc2cc(O)cc(O)c12 | inactive: 2.2 |
| COc1cc2nccc(Oc3ccc(NC(=O)NC4CC4)c(Cl)c3)c2cc1C(N)=O [Lenvatinib] | inactive: -0.711 |
| CC(C)CCCC(C)C1CCC2C3CC[C@H]4CCCC[C@]4(C)C3CC[C@]12C (some centres undefined) | inactive: 3.04 |
| Cn1ccnc1 [1-Methylimidazole] | inactive: 2.13 |
| CC(=O)[C@H]1CC[C@H]2[C@@H]3CC[C@H]4C[C@H](O)CC[C@]4(C)[C@H]3C(=O)C[C@]12C [5alpha-Pregnan-3alpha-ol-11,20-dione] | inactive: 3.09 |
| Br.CCCN(CCC)[C@@H]1CCc2cccc(O)c2C1 [R-(+)-8-Hydroxy-DPAT hydrobromide] | inactive: 1.76 |
| Cc1c[nH]c2ccccc12 | inactive: 1.93 |
| O=c1[nH]c(=O)n(C2C[C@@H](O)[C@@H](CO)O2)cc1F (some centres undefined) | inactive: 1.24 |
| CC[C@H](CCC(C)[C@H]1CCC2C3CCC4C[C@@H](O)CC[C@]4(C)C3CC[C@@]21C)C(C)C (some centres undefined) | inactive: 1.28 |
| CC(N)Cc1c[nH]c2ccc(OCc3cccs3)cc12.Cl (centres undefined) | inactive: 2.9 |
| Cc1ccccc1-c1cc(N2CCN(C)CC2)ncc1N(C)C(=O)C(C)(C)c1cc(C(F)(F)F)cc(C(F)(F)F)c1 [Netupitant] | inactive: 1.59 |
| CC[N+](CC)(CC)CCOc1cccc(OCC[N+](CC)(CC)CC)c1OCC[N+](CC)(CC)CC.[I-].[I-].[I-] [Gallamine triethiodide] | inactive: 1.48 |
| CS(=O)(=O)[O-].C[n+]1ccccc1/C=N/O | inactive: 1.75 |
| Cl.Cl.O=C(O)COCCN1CCN(C(c2ccccc2)c2ccc(Cl)cc2)CC1 (centres undefined) | inactive: 1.12 |
| Cl.Cl.O=C(O)COCCN1CCN(C(c2ccccc2)c2ccc(Cl)cc2)CC1 (centres undefined) [Cetirizine dihydrochloride] | inactive: 1.39 |
| Cl.O=C(Nc1ccccc1)OCC(CN1CCCCC1)OC(=O)Nc1ccccc1 (centres undefined) | active: -3.79 |
| NC(=O)c1cnccn1 | inactive: 1.55 |
| CCCCNC(=O)NS(=O)(=O)c1ccc(C)cc1 [Tolbutamide] | inactive: 3.17 |
| O=C(NOCC1CC1)c1ccc(F)c(F)c1Nc1ccc(I)cc1Cl | inactive: 2.45 |
| CC(c1cc2ccccc2s1)N(O)C(N)=O (centres undefined) [Zileuton] | inactive: 2.96 |
| O=C(O)[C@H](O)[C@@H](O)C(=O)O.O=C(c1ccc(F)cc1)C1CCN(CCn2c(=O)[nH]c3ccccc3c2=O)CC1 | inactive: 2.16 |
| Cc1nn(-c2ccccc2)c(C)c1/C=N/N1CCN(Cc2ccccc2)CC1 | inactive: 2.17 |

| Compound | cell-cell fusion (z-score) |
| --- | --- |
| C[C@]12C=CC(=O)C=C1CC[C@@H]1[C@@H]2[C@@H](O)C[C@@]2(C)[C@H]1CC[C@]2(O)C(=O)CO [Prednisolone] | inactive: 2.48 |
| CC(=O)CC(c1ccc([N+](=O)[O-])cc1)c1c(O)c2ccccc2oc1=O (centres undefined) | inactive: 0.818 |
| CC(C(=O)[O-])c1cccc(Oc2ccccc2)c1.CC(C(=O)[O-])c1cccc(Oc2ccccc2)c1.O.O.[Ca+2] (centres undefined) [Fenoprofen calcium dihydrate] | inactive: 1.96 |
| CC(C)NCC(O)COc1ccc(CC(N)=O)cc1 (centres undefined) [Atenolol] | inactive: 2.65 |
| CCc1nn(CCCN2CCN(c3cccc(Cl)c3)CC2)c(=O)n1CCOc1ccccc1 | inactive: 2.79 |
| NCC[C@H](O)C(=O)N[C@@H]1C[C@H](N)[C@@H](O[C@H]2O[C@H](CN)[C@@H](O)[C@H](O)[C@H]2O)[C@H](O)[C@H]1O[C@H]1O[C@H](CO)[C@@H](O)[C@H](N)[C@H]1O.O=S(=O)(O)O.O=S(=O)(O)O [Amikacin Sulfate Salt] | inactive: 1.1 |
| O=c1ccn([C@@H]2O[C@H](COP(=O)([O-])OP(=O)([O-])OP(=O)([O-])O)[C@@H](O)[C@H]2O)c(=O)[nH]1.[Na+].[Na+].[Na+] | inactive: 2.03 |
| C=CCc1ccc2c(c1)OCO2 | inactive: 1.93 |
| NC(N)=O | inactive: 2.15 and inactive: 3.7 |
| O=C([O-])CC1CCCc2ccccc2C1O.[Na+] (centres undefined) | inactive: 3.62 |
| COC(=O)C1=C(C)NC(C)=C(C(=O)OCC(C)C)C1c1ccccc1[N+](=O)[O-] (centres undefined) [Nisoldipine] | inactive: -2.38 |
| CC(=O)O[C@H]1C[C@@H](OC(C)=O)C(C)(C)C2C[C@@H](O)[C@]3(C)C(CC[C@@]4(C)[C@H](c5ccoc5)OC(=O)[C@H]5O[C@]543)[C@]21C (some centres undefined) | inactive: 1.27 |
| Oc1ccc(-c2nc(-c3ccncc3)c(-c3ccc(F)cc3)[nH]2)cc1 | inactive: 0.681 |
| O=C(O[C@@H]1Cc2c(O)cc(O)cc2O[C@@H]1c1cc(O)c(O)c(O)c1)c1cc(O)c(O)c(O)c1 [(-)-Epigallocatechin gallate] | inactive: 1.51 |
| Oc1cc2c(cc1O)CN(C(=S)NCCc1ccc(Cl)cc1)CCC2 [Capsazepine] | inactive: -1.41 |
| CCCCC[C@H](O)/C=C/[C@H]1[C@H](O)CC(=O)[C@@H]1C/C=C\CCCC(=O)O [Prostaglandin E2 (PGE2)] | inactive: 0.197 |
| CC(CN(C)C)CN1c2ccccc2Sc2ccccc21.O=C(O)C(O)C(O)C(=O)O (centres undefined) | inactive: 0.911 |
| CC(=O)O.N=C(N)N/N=C/c1c(Cl)cccc1Cl [Guanabenz acetate] | inactive: -0.118 |
| Nc1ccc(C(=O)[O-])cc1.[K+] | inactive: 1.34 |
| CC(O)C1=C(C)/C2=C/C3=N/C(=C\C4=C(CCC(O)=O)C(C)=C(N4)/C=C4\N=C(\C=C\1/N\2)C(C)=C4C(C)O)/C(CCC(O)=O)=C3C (centres undefined) | inactive: 2.18 |
| OC[C@H]1O[C@H](OC[C@H]2O[C@@H](O)[C@H](O)[C@@H](O)[C@@H]2O)[C@H](O)[C@@H](O)[C@H]1O | inactive: 1.82 |
| O=C1CC(c2ccc(O)cc2)Oc2ccccc21 (centres undefined) | inactive: 1.58 |
| NC1CCCC[C@H]1N.O=C1[O][Pt][O]C1=O (some centres undefined) | inactive: 1.84 |

| Compound | cell-cell fusion (z-score) |
| --- | --- |
| COc1cc(N)c(Cl)cc1C(=O)NC1CCN(CCCOc2ccc(F)cc2)CC1OC (centres undefined) | inactive: 2.58 |
| O=c1[nH]cnc2c1ncn2[C@H]1C[C@H](O)[C@@H](CO)O1 [2'-Deoxyinosine] | inactive: 1.94 |
| Nc1nc(=O)c2c(CCc3ccc(C(=O)N[C@@H](CCC(=O)[O-])C(=O)[O-])cc3)c[nH]c2[nH]1.Nc1nc(=O)c2c(CCc3ccc(C(=O)N[C@@H](CCC(=O)[O-])C(=O)[O-])cc3)c[nH]c2[nH]1.O.O.O.O.O.[Na+].[Na+].[Na+].[Na+] [Pemetrexed Disodium Hydrate] | inactive: 2.62 |
| CCCC[C@@]1(C2CCCC2)Cc2cc(OCC(=O)O)c(Cl)c(Cl)c2C1=O [R(+)-Butylindazone] | inactive: 2.56 |
| NC(=O)C1CCCc2c1[nH]c1ccc(Cl)cc21 (centres undefined) | inactive: -0.255 |
| Cn1cc(C2=C(c3ccc(Cl)cc3Cl)C(=O)NC2=O)c2ccccc21 | inactive: 1.29 and inactive: 2.08 |
| CN(C/C=C/C#CC(C)(C)C)Cc1cccc2ccccc12.Cl | inactive: 4.68 |
| CNC(=O)c1nn(C)c2c1C(C)(C)Cc1cnc(Nc3ccc(N4CCN(C)CC4)cc3)nc1-2 | active: -7.44 |
| CCN(CC)CCCC(C)Nc1nc(C)cc(Nc2ccc3nc(C)cc(N)c3c2)n1.Cl.Cl.Cl (centres undefined) | inactive: 0.0293 |
| O=C(/C=C/c1ccccc1)c1ccc(O[C@@H]2O[C@H](CO)[C@@H](O)[C@H](O)[C@H]2O)cc1O | inactive: 1.98 |
| N#Cc1ccc(COC[C@H]2O[C@H](n3c(NCc4ccc(Cl)c(Cl)c4)nc4c(N)ncnc43)[C@@H](O)[C@H]2O)cc1 | inactive: 1.54 |
| CCN(CC)CCCC(C)Nc1ccnc2cc(Cl)ccc12.O=P(O)(O)O.O=P(O)(O)O (centres undefined) | inactive: 1.27 |
| N[C@@H](CCC(=O)N[C@@H](CS)C(=O)NCC(=O)O)C(=O)O | inactive: -0.461 |
| CC(=O)c1ccc[nH]1 | inactive: 2.46 |
| CCN(CCCCOC(=O)c1ccc(OC)c(OC)c1)C(C)Cc1ccc(OC)cc1.Cl (centres undefined) | inactive: 2.92 |
| Br.COc1ccc2c(c1)[C@]13CCCC[C@@H]1[C@H](C2)N(C)CC3.O [Dextromethorphan HBr monohydrate] | inactive: 2.25 |
| O=C(O)/C=C\C(=O)O.S=C(NC1CCCCC1)N1CCC(c2c[nH]cn2)CC1 [Thioperamide maleate] | inactive: 1.57 |
| CNCCCN1c2ccccc2CCc2ccccc21.Cl [Desipramine hydrochloride] | inactive: 2.9 |
| Cl.Cl.Cl.Cl.Cl.Cl.Cl.Cl.c1cc(CN2CCCNCCNCCCNCC2)ccc1CN1CCCNCCNCCCNCC1 [Plerixafor 8HCl (AMD3100 8HCl)] | inactive: 1.71 |
| CC(C)c1ccccc1Cc1cc(C(=O)Nc2ccc(S(=O)(=O)c3ccccc3C(C)(C)C)cc2)c(O)c(O)c1O | active: -5.21 |
| CC(C)NCC(O)c1cc(O)cc(O)c1 (centres undefined) | inactive: 0.47 |
| CCCCN(CC)c1nc(C)nc2c1c(C)cn2-c1c(C)cc(C)cc1C.Cl | inactive: 4.47 and inactive: 5.67 |
| Cc1onc(-c2ccccc2Cl)c1C(=O)N[C@@H]1C(=O)N2[C@@H]1SC(C)(C)[C@@H]2C(=O)[O-].[Na+] | inactive: 0.736 |
